Laboratory results: PubChem BioAssay AID1224826 (NIAID, 2016)

Assay: 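Knock-downs that raise or lower Tnf reporter signal after endotoxin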 (primary screen)
System: RAW264.7 G9 macrophages from mouse bearing reporters for p65 (GFP) and the Tnf promoter (mCherry)
Knock-down reagent: siRNA pool against mouse genes, 100 nM
Duration: 16 h of LPS stimulation, after 2 days of siRNA transfection
Conditions: bacterial lipopolysaccharide (Salmonella minnesota R595), 10 ng/ml
Measurement: 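Nuclear mCherry signal of the Tnf promoter reporter measured by imaging after background removal, scaled to each plate median and turned into robust z-scores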
Reading the numbers: Tnf reporter robust z-score: higher = stronger Tnf promoter reporter signal after LPS
Rule for the call: 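Called active when robust z-score is at most -1.3, matching the median of the Tlr4 knock-down control, or over 3; control wells and wells with under 50 cells never active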
Calls: active = Tnf reporter clearly lowered or raised; inactive = no clear change in Tnf reporter
This is a random part of about 17,000 deposited reagents. About 1,110 of them (6.6%) count as active. 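Active means lowered or raised reporter signal; replicate intensities are raw and not normalised per plate.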 Further read-outs or replicates are left out here.

For Gdpgp1, the values are Tnf reporter robust z-score -0.36; fewer than 50 cells in well enough cells in well; inactive.
With knock-down of Kazald1, the screen gave Tnf reporter robust z-score -0.7; fewer than 50 cells in well enough cells in well; inactive.
Against Med9, the values are fewer than 50 cells in well fewer than 50 cells per well; well left out of calls; inactive.
Pds5b scored Tnf reporter robust z-score -0.09; fewer than 50 cells in well enough cells in well; inactive.
Against Stat5a, the entry reads Tnf reporter robust z-score 0.75; fewer than 50 cells in well enough cells in well; inactive.
Silencing of Spink4 gave: Tnf reporter robust z-score 1.43; fewer than 50 cells in well enough cells in well; inactive.
With knock-down of Tlr7, the screen gave Tnf reporter robust z-score -0.75; fewer than 50 cells in well enough cells in well; inactive.
Depletion of Clic6 gave: Tnf reporter robust z-score -0.08; fewer than 50 cells in well enough cells in well; inactive.
Nt5m scored Tnf reporter robust z-score 2.06; fewer than 50 cells in well enough cells in well; inactive.
Krtap4-2 gave fewer than 50 cells in well fewer than 50 cells per well; well left out of calls; inactive.
Ch25h scored Tnf reporter robust z-score -1.16; fewer than 50 cells in well enough cells in well; inactive.
Silencing of Hypk gave: fewer than 50 cells in well fewer than 50 cells per well; well left out of calls; inactive.
